# In PubChem BioAssay AID504444 (National Center for Advancing Translational Sciences (NCATS), 2011):
# About 7,500 (2.1%) of roughly 360,000 compounds were called active. The inconclusive results got no clear call from the source; some entries with a clear call stand among them for comparison. Calls follow the shape of the dose curve; as a rule, active = well fitted inhibition curve with a large enough effect; inconclusive = small, poorly fitted or top-dose-only effect, or effect the other way; inactive = flat fitted curve, though single readings scatter. A potency beside an inconclusive call is a rough fit, not a confirmed value.
# Assay: Nrf2 qHTS screen for inhibitors; also: nearly all actives have a fitted effect of over 60% in size
# Details: A549 ARE-Fluc reporter, luciferase luminescence, 18-24 h; activity change, negative = inhibition: at 46 µM (top of the series)
# Procedure, shortened: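 Reporter: ARE-Fluc in A549. Exposure: 18-24 h, 37 °C, 5% CO2, 5% FBS OPTI-MEM. Readouts: fluorescent cytotoxicity (CellTiter-Fluor), then luminescent Nrf2 signal after BugLite.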
# % is scaled to controls: 0 for no effect and ±100 for the full control effect; potency is read from the fitted curve at half-maximal effect.
SMILES,Potency,"activity change, negative = inhibition"
O=c1cc(NCCc2ccccc2)c2ccccc2o1,"inconclusive: 4.11 µM [activator, single point]",
CC1(C)Cc2nc3nc(SCC(=O)Nc4ccccc4)nc(N)c3cc2CO1,"inconclusive: 20.6 µM [falling, single point]",
O=C1c2ccccc2C(=O)c2c1ncn2-c1ccccc1,"inconclusive: 29.1 µM [falling, single point]",
CCOC(=O)/C(=N\Nc1ccccc1)S(=O)(=O)c1ccccc1,"inconclusive: 1.64 µM [falling, partial curve, poor fit]",
CCN(CC(=O)Nc1ccc2c(c1)OCCO2)c1nc(-c2cccnc2)nc2ccccc12,,inactive: -3.42%
Fc1ccc2cnc(-c3ccccc3)c(-c3ccc(C(F)(F)F)cc3)c2c1,"inconclusive: 23.1 µM [falling, single point]",
O=C(NCCCn1ccnc1)c1cc(-c2cccs2)on1,"inconclusive: 29.1 µM [activator, single point]",
Nc1ccccc1N=c1ssnc1Cl,,inactive: 15.3%
C(=N\Nc1nc2ccccc2[nH]1)/c1ccccc1,"inconclusive: 29.1 µM [activator, single point]",
CCOC(=O)c1c(CSc2cccs2)n(C)c2cc(Br)c(O)c(CN(C)C)c12,"inconclusive: 0.13 µM [activator, full curve, poor fit]",
COc1ccc(N(C)C(=O)CCS(=O)(=O)c2cccc3nsnc23)cc1,inactive,
CC1Cc2ccccc2N1CC(=O)Nc1ccc(Cl)c(S(=O)(=O)N(C)C)c1 (stereo not drawn),,inactive: 1.95%
O=C(COC(=O)CCc1ccc(S(=O)(=O)N2CCOCC2)cc1)NCc1ccc(Cl)cc1,"inconclusive: 4.61 µM [activator, partial curve, poor fit]",
Cc1nc(-c2coc3cc(O)c(C)cc3c2=O)cs1,active: 10.3 µM,
Cc1c(NC(=O)c2ccccc2F)cccc1-c1nc2cccnc2s1,,inactive: -4.22%
COc1ccc(OC)c(-c2csc(NC(=O)Cc3ccc(F)cc3)n2)c1,"inconclusive: 13 µM [falling, partial curve]",
Cc1cc(C)c(C)c(S(=O)(=O)N2CCC(C(=O)Nc3ccc(S(=O)(=O)N4CCOCC4)cc3)CC2)c1C,"inconclusive: 29.1 µM [falling, single point]",
CCn1c(C)cc(/C=C2/NC(=O)N(c3ccccc3)C2=O)c1C,"inconclusive: 8.2 µM [activator, partial curve]",
COc1ccc(NC(=O)c2ccc(COCC(F)(F)F)cc2)cc1OC,"inconclusive: 36.6 µM [falling, partial curve, poor fit]",
Fc1ccccc1-c1nc(-c2ccccc2)no1,"inconclusive: 5.17 µM [activator, partial curve]",
CCn1cc(C(=O)NCc2ccccc2)c(=O)c2cc(S(=O)(=O)N3CCCCCC3)ccc21,"inconclusive: 16.4 µM [falling, single point]",
COc1ccc(Br)cc1CNC(=O)C1CCCCN1S(=O)(=O)c1ccc(F)cc1 (stereo not drawn),"inconclusive: 14.6 µM [falling, single point]",
Cc1ccc(NC(=O)[C@H](Cc2c[nH]c3ccccc23)NC(=O)[C@@H]2Cc3ccccc3CN2)c(C)c1,"inconclusive: 1.64 µM [activator, full curve]",

SMILES,Potency,"activity change, negative = inhibition"
Cc1ccc(OCc2nc3ccccc3n2Cc2ccccc2Cl)cc1,,inactive: -5.75%
Cc1cc(O)c(C(C)C)cc1NC(=O)Nc1ccc([N+](=O)[O-])cc1,"inconclusive: 32.6 µM [falling, single point]",
O=C(Cc1ccccc1)Nc1c(C(=O)Nc2ccccc2F)oc2ccccc12,,inactive: 7.31%
CCc1ccc(-c2[nH]c3c(c2-c2sc(C)c(C(=O)OC)c2O)c(=O)n(C)c(=O)n3C)cc1,,inactive: 2.24%
CCOc1ccc(-c2cc(CCCC(=O)N3CCN(c4ccc(OC)cc4)CC3)no2)cc1,"inconclusive: 7.31 µM [falling, partial curve, poor fit]",
N#C[C@H]1C2OC2c2ccccc2N1C(=O)c1ccccc1 (stereo partly drawn),,inactive: 0.728%
CCN(CC)C(=O)C1CCCN(c2ncnc3c2cnn3-c2ccc(Cl)cc2)C1 (stereo not drawn),active: 20.6 µM,
Cc1ccc(S(=O)(=O)N2CCCCC2CCNC(=O)C(=O)NCc2ccncc2)cc1 (stereo not drawn),"inconclusive: 16.4 µM [falling, single point]",
CC1Cn2cc(C(=O)Nc3cccc(C(F)(F)F)c3)c(=O)c3c(Cl)ccc(c32)O1 (stereo not drawn),"inconclusive: 1.84 µM [activator, partial curve, poor fit]",
CCOc1cccc2sc(NC(=O)CCS(=O)(=O)c3ccccc3)nc12,,inactive: 3.43%
Cc1ccc(-c2onc(C)c2C)cc1S(=O)(=O)NC1CCCCC1,"inconclusive: 29.1 µM [falling, single point]",
O=C(NCCn1c(-c2ccncc2)nc2ccccc21)[C@H]1CCCN1c1nc(CN2CCCCC2)cs1,"inconclusive: 29.1 µM [activator, single point]",
CC(C)(C)N=Cc1cc(-c2ccccc2)sc1O,"inconclusive: 3.66 µM [activator, single point]",
C[C@H]1C[C@@H]2[C@H]([C@@H](O)C[C@@]3(C)[C@H]2CC[C@]3(O)C(=O)CO)[C@@]2(C)C=CC(=O)C=C12,active: 0.0259 µM,
Cc1ccc(-n2c(=O)c3c(c4cc(C)ccc4n3C)n(CC(=O)Nc3cc(C)cc(C)c3)c2=O)cc1,,inactive: 5.83%
COc1ccc(Nc2ccc(S(=O)(=O)N3CCCCC3)cc2[N+](=O)[O-])cc1Cl,"inconclusive: 20.6 µM [falling, partial curve]",
O=c1c(C(c2ccc(F)cc2)c2c(O)nc3n(c2=O)CCCS3)c(O)nc2n1CCCS2,,inactive: -0.0364%
CCc1nnc(NC(=O)CSc2ccc(-c3ccc(C)cc3)nn2)s1,,inactive: 18.2%
COc1ccc2c(c1)CCc1c(C(=O)Nc3c(C)nn(Cc4ccc(C)cc4)c3C)noc1-2,active: 14.6 µM,
Cc1ccc(CC(=O)NCc2ccc(F)cc2)cc1,"inconclusive: 20.6 µM [activator, single point]",
Cc1ccc(N2CC(C(=O)N3CCC(C(=O)Nc4ccc(Br)cc4)CC3)CC2=O)cc1 (stereo not drawn),"inconclusive: 23.1 µM [falling, single point]",
Cc1ccc(NCc2cccc(B(O)O)c2)cc1,"inconclusive: 9.2 µM [activator, partial curve, poor fit]",
COC(=O)c1sccc1NC(=O)CSc1ccccc1NS(=O)(=O)c1ccccc1Cl,"inconclusive: 18.4 µM [falling, single point]",

SMILES,Potency,"activity change, negative = inhibition"
Cn1nnnc1Sc1ncnc2scc(-c3cccc(C(F)(F)F)c3)c12,"inconclusive: 29.1 µM [falling, single point]",
O=C1OCc2ccc(NS(=O)(=O)c3ccc(C(F)(F)F)cc3)cc21,"inconclusive: 18.4 µM [falling, partial curve, poor fit]",
COc1cccc(C(=O)Nc2ccncc2)c1OC,active: 23.1 µM,
Cc1nnc(-c2cccc(Br)c2)c2cn(-c3ccccc3Cl)nc12,"inconclusive: 29.1 µM [falling, single point]",
CCCOc1ccc(C(=O)Nc2ccc(C)cc2[N+](=O)[O-])cc1,"inconclusive: 18.4 µM [falling, partial curve, poor fit]",
O=C(Nc1nc(-c2ccc(F)c(F)c2)cs1)c1ccc(OCC2CCCO2)cc1 (stereo not drawn),"inconclusive: 32.6 µM [falling, single point]",
O=C(Cc1csc(-c2ccc(Cl)cc2)n1)Nc1cccc(S(=O)(=O)NC2=NCCC2)c1,active: 23.1 µM,
O=C(NCC(=O)N1CCOCC1)c1ccccc1,"inconclusive: 20.6 µM [activator, single point]",
CCc1ccc(N=C2N=C(N)c3ccccc32)cc1,"inconclusive: 5.17 µM [activator, partial curve]",
CC1(C)Cc2c(sc3c2c(=N)n(Cc2ccco2)c(=O)n3CC(=O)Nc2ccc(Cl)cc2)CO1,"inconclusive: 29.1 µM [falling, single point]",
COc1ccc(S(=O)(=O)N(c2onc(C)c2Cl)S(=O)(=O)c2ccc(OC)c(OC)c2)cc1OC,,inactive: -3.27%
COc1cccc(CNC(=O)CCn2cccn2)c1,"inconclusive: 8.2 µM [activator, partial curve, poor fit]",
CC(=O)c1ccc(N2CCN(C(=S)Nc3ccccc3C(F)(F)F)CC2)cc1,"inconclusive: 20.6 µM [falling, single point]",
COc1cc(Cl)cc(C(c2c(C(=O)O)[nH]c3ccccc23)c2c(C(=O)O)[nH]c3ccccc23)c1O,"inconclusive: 0.146 µM [falling, full curve, poor fit]",
Cn1c(=O)c2c(nc(Sc3ncnn3CC(=O)N3CCOCC3)n2C)n(C)c1=O,"inconclusive: 29.1 µM [falling, partial curve, poor fit]",
O=C1NC(=O)C2(CCCCCCC2)N1,,inactive: -0.275%
CCOC(=O)Nc1ccc2c(CN3CCN(S(=O)(=O)c4ccccc4F)CC3)cc(=O)oc2c1,,inactive: 6.92%
CCN(CC)S(=O)(=O)c1ccc(C)c(NC(=S)NC2CCCCC2)c1,"inconclusive: 23.1 µM [falling, single point]",
CCC1(C)Cc2ccccc2-c2c1c(=O)n(Cc1ccccc1)c1nnnn21 (stereo not drawn),,inactive: 16.7%
CN(C)S(=O)(=O)c1cccc(NC(=S)Nc2ccc(Cl)cc2Cl)c1,,inactive: 22.1%
O=S(=O)(c1ccc(Cl)cc1)n1ccc2cccnc21,"inconclusive: 32.6 µM [falling, single point]",
CCc1nnc(NC(=O)CSc2nccn2-c2cc(C)cc(C)c2)s1,"inconclusive: 29.1 µM [falling, partial curve, poor fit]",

# 13 structures already listed, ordered by SMILES length, ascending:
SMILES,Potency,"activity change, negative = inhibition"
O=C(NCC(=O)N1CCOCC1)c1ccccc1,"inconclusive: 20.6 µM [activator, single point]",
CCc1ccc(N=C2N=C(N)c3ccccc32)cc1,"inconclusive: 5.17 µM [activator, partial curve]",
N#C[C@H]1C2OC2c2ccccc2N1C(=O)c1ccccc1 (stereo partly drawn),,inactive: 0.728%
COc1ccc(NC(=O)c2ccc(COCC(F)(F)F)cc2)cc1OC,"inconclusive: 36.6 µM [falling, partial curve, poor fit]",
O=C1OCc2ccc(NS(=O)(=O)c3ccc(C(F)(F)F)cc3)cc21,"inconclusive: 18.4 µM [falling, partial curve, poor fit]",
Fc1ccc2cnc(-c3ccccc3)c(-c3ccc(C(F)(F)F)cc3)c2c1,"inconclusive: 23.1 µM [falling, single point]",
O=C(Nc1nc(-c2ccc(F)c(F)c2)cs1)c1ccc(OCC2CCCO2)cc1 (stereo not drawn),"inconclusive: 32.6 µM [falling, single point]",
COC(=O)c1sccc1NC(=O)CSc1ccccc1NS(=O)(=O)c1ccccc1Cl,"inconclusive: 18.4 µM [falling, single point]",
CCN(CC(=O)Nc1ccc2c(c1)OCCO2)c1nc(-c2cccnc2)nc2ccccc12,,inactive: -3.42%
COc1ccc(Nc2ccc(S(=O)(=O)N3CCCCC3)cc2[N+](=O)[O-])cc1Cl,"inconclusive: 20.6 µM [falling, partial curve]",
Cc1ccc(N2CC(C(=O)N3CCC(C(=O)Nc4ccc(Br)cc4)CC3)CC2=O)cc1 (stereo not drawn),"inconclusive: 23.1 µM [falling, single point]",
O=c1c(C(c2ccc(F)cc2)c2c(O)nc3n(c2=O)CCCS3)c(O)nc2n1CCCS2,,inactive: -0.0364%
CCc1ccc(-c2[nH]c3c(c2-c2sc(C)c(C(=O)OC)c2O)c(=O)n(C)c(=O)n3C)cc1,,inactive: 2.24%
